The results in this text go back to patent US5049548A (Merck & Co., Inc., priority 1989, dated 1991).

The data set in a line: general procedure: solution-phase peptide synthesis; DCC/HOBT (EDC/HOBT in one case). Conditions: coupling step.

“N^α -(Quinuclidin-3(S)-yl)Phe-His-Cal[CH(OH)CH2 ]Val-NH-n-butyl” returned a step yield of 75%.

“N^α -(Quinuclidin-3-yl)Phe-His-ACHPA-Ile-NHCH2 (pyridin-4-yl)”: the step yield is on record as 87%.

“N^α -[(pyridin-2-yl)methyl]Phe-His-ACHPA-Ile-NHCH2 (pyridin-4-yl)” showed a step yield of 11.7%.

Under “iodide”, “[N^α -(N-Methylquinuclidin-3(S)-yl)Phe-His(DNP)-ACHPA-Ile-NH-CH2 -(pyridin-4-yl)]^+ I^-” displayed a step yield of 62.0%.
